In article PMC10151520, “TapA acts as specific chaperone in TasA filament formation by strand complementation” (Proceedings of the National Academy of Sciences of the …, 2023):
These are yes or no findings as the source states them, for the method shown. Some binding calls cover weakened binding; strength is not graded here.

Assays:
[1] = target: T1, TasA (mature protein, residues 28 to 261) (Bacillus subtilis) (UniProt P54507); assay: AUC; sedimentation velocity of mixtures: 100 µM TasA with TapA (100, 70, 10, 4, 2 or 1 µM), TapA variants (100 µM) or 250 µM peptide; 20 °C, 20 mM Na phosphate pH 7.0, 150 mM NaCl, 40,000 rpm, runs of 17 h; both purified
T1 sequence: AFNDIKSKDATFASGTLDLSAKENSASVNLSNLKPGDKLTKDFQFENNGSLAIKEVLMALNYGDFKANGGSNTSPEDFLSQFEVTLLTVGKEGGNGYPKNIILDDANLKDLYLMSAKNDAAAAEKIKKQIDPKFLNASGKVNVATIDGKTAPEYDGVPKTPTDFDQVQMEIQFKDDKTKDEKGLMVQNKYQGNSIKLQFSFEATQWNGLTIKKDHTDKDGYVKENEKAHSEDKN

[2] = target: TapA (mature protein, residues 44 to 253) (B. subtilis 168) (UniProt P40949); assay: AUC; sedimentation velocity, each protein alone at 100 µM, 20 °C, 20 mM Na phosphate pH 7.0, 150 mM NaCl, 40,000 rpm, runs of 17 h, interference data; both purified
[3] = target: TapA (mature protein, residues 44 to 253) (B. subtilis 168) (UniProt P40949); assay: SEC; gel filtration of TapA constructs, without DTT; both purified
[4] = target: T1, TasA (mature protein, residues 28 to 261) (Bacillus subtilis); assay: condition: only at pH 7 with 50 mM NaCl (200 µM TapA in the syringe, 20 µM TasA in the chamber); ITC; TapA (200 µM, syringe) titrated into TasA (20 µM, chamber), 18 °C, pH 7, 50 mM NaCl; both purified
[5] = target: TapA_(54-190) (B. subtilis 168) (UniProt P40949); assay: SEC; gel filtration of TapA constructs, without DTT; both purified
[6] = target: TapA_(75-190) (B. subtilis 168) (UniProt P40949); assay: as above
[7] = target: TapA_(60-190) (B. subtilis 168) (UniProt P40949); assay: SEC; gel filtration of TapA constructs after DTT treatment; both purified
[8] = target: TapA_(66-190) (B. subtilis 168) (UniProt P40949); assay: as above

B1: C58SF61A-TapA_(44-62) (peptide, UniProt P40949 44-62)
peptide: AFHDIETFDVSLQTSKDAQ
In the case of B1, the binding [1] is reported as “binds weakly”.

B2: TapA (mature protein, residues 44 to 253) (protein)
chain: AFHDIETFDVSLQTCKDFQHTDKNCHYDKRWDQSDLHISDQTDTKGTVCSPFALFAVLENTGEKLKKSKWKWELHKLENARKPLKDGNVIEKGFVSNQIGDSLYKIETKKKMKPGIYAFKVYKPAGYPANGSTFEWSEPMRLAKCDEKPTVPKKETKSDVKKENETTQKDIPEKTMKEETSQEAVTKEKETQSDQKESGEEDEKSNEADQ
With B2 the binding [2] was “no binding (tested: 100 µM)”, the binding [3] was “no binding” and the binding [4] was “no binding”.

B3: TapA_(54-190) (domain or fragment, UniProt P40949 54-190)
chain: SLQTCKDFQHTDKNCHYDKRWDQSDLHISDQTDTKGTVCSPFALFAVLENTGEKLKKSKWKWELHKLENARKPLKDGNVIEKGFVSNQIGDSLYKIETKKKMKPGIYAFKVYKPAGYPANGSTFEWSEPMRLAKCDE
For B3, the binding [5] was “no binding”.

B4: TapA_(75-190) (domain or fragment, UniProt P40949 75-190)
chain: DQSDLHISDQTDTKGTVCSPFALFAVLENTGEKLKKSKWKWELHKLENARKPLKDGNVIEKGFVSNQIGDSLYKIETKKKMKPGIYAFKVYKPAGYPANGSTFEWSEPMRLAKCDE
B4 was tested, and the binding [6] was “no binding”.

B5: TapA_(60-190) (domain or fragment, B. subtilis 168, UniProt P40949 60-190, looked up)
chain: DFQHTDKNCHYDKRWDQSDLHISDQTDTKGTVCSPFALFAVLENTGEKLKKSKWKWELHKLENARKPLKDGNVIEKGFVSNQIGDSLYKIETKKKMKPGIYAFKVYKPAGYPANGSTFEWSEPMRLAKCDE
notes: TapA of Bacillus subtilis 168, residues 60 to 190; Odd number of cysteines (free C68)
In the case of B5, the binding [7] is reported as “no binding (condition: upon DTT treatment)”.

B6: TapA_(66-190) (domain or fragment, B. subtilis 168, UniProt P40949 66-190, looked up)
chain: KNCHYDKRWDQSDLHISDQTDTKGTVCSPFALFAVLENTGEKLKKSKWKWELHKLENARKPLKDGNVIEKGFVSNQIGDSLYKIETKKKMKPGIYAFKVYKPAGYPANGSTFEWSEPMRLAKCDE
notes: TapA of Bacillus subtilis 168, residues 66 to 190; Odd number of cysteines (free C68)
B6 was tested, and the binding [8] was “no binding (condition: upon DTT treatment)”.
